From article PMC5322571
Construct, isoform or probe ends are uncertain for at least one entry. No signal at the amounts used counts as a negative. A weaker result is weaker than the reference pair of the same experiment.

Molecular target: CA125 (Cancer Antigen 125, mucin glycoprotein) (human) (UniProt Q8WXI7)
Assay: fluorescence anisotropy
Conditions: FA: 100 nM aptamer heat cycled in TGKM (25 mM Tris, 192 mM glycine, 5 mM KH2PO4, 1 mM MgCl2, pH 8.3), CA125 0-2000 U/mL in PBS, 0.13 mg/mL BSA, 90 min RT, read at 22 C, commercial protein, label: 5' TEX615 (Texas Red) for FA, FAM for APCE, single-stranded DNA

| Sequence | binding result (heat cycled with Mg2+, affinity substantially reduced (abstract: abrogated), method not explicitly stated) | binding result (heat cycled without Mg2+ (PBS)) |
| --- | --- | --- |
| TGCCTTATTACTCTCTCCTGTTAAC [CA125_12 (CA125_12_NP, without primer regions)] | binds more weakly |  |
| ACTAGCTCCGATCTTTCTTATCTAC [CA125_1 (CA125_1_NP, without primer regions)] |  | no binding |
